# Assay results from patent publication US6410239B1, “Identification and comparison of protein—protein interactions that occur in populations and identification of inhibitors of these interactors” (CuraGen Corporation, priority 1996, dated 2002).
# At least one compound was matched to its structure with a doubt left.
# Biological target: T1, VEGF-GBD::VEGF-GAD diploids (Homo sapiens, UniProt P15692)
# T1 construct: expressed in transfected cells; host or cells: Saccharomyces cerevisiae YULH(VEGF-GBD) x N106'(VEGF-GAD) diploids
# T1 sequence (P15692 32-191 isoform P15692-4): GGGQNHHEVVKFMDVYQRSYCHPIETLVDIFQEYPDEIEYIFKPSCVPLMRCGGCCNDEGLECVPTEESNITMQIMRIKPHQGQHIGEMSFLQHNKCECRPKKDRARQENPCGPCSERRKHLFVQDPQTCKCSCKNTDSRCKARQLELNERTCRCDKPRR
# Experiment: 5-FOA inhibition assay, VEGF-GBD::VEGF-GAD control interaction
# Format: cell-based, yeast
# Conditions: FK506 1 μM
structure (smiles),measurement,value
C=CC[C@@H]1/C=C(\C)C[C@H](C)C[C@H](OC)[C@H]2O[C@@](O)(C(=O)C(=O)N3CCCC[C@H]3C(=O)O[C@H](/C(C)=C/[C@@H]3CC[C@@H](O)[C@H](OC)C3)[C@H](C)[C@@H](O)CC1=O)[C@H](C)C[C@@H]2OC [FK506],effect on interaction of VEGF-GBD with VEGF-GAD,not inhibited
